These results are taken from PMC6206484.

Sequences of proteins named here, by UniProt entry; tags and fusion partners are left off. A change or cut given only in a name is not applied to a line headed by its entry.
UniProt Q8NG27: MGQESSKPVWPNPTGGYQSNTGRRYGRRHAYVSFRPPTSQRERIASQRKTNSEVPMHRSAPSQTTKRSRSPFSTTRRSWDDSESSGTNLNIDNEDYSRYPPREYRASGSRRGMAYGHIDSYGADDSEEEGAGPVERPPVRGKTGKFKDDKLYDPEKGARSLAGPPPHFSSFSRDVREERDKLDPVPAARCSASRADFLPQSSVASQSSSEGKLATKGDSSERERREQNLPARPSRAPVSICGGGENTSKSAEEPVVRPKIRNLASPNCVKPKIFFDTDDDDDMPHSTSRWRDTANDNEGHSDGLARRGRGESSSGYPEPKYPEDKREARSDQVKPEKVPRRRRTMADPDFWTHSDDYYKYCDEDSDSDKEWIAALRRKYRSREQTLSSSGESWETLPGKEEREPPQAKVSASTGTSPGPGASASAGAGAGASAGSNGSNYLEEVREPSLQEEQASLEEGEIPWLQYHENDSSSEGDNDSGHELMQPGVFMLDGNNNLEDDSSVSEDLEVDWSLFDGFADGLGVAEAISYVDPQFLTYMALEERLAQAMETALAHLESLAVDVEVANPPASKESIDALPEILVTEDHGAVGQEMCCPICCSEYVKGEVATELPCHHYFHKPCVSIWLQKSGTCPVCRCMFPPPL

For test [1], the target named is T1, endogenous NSE4 (human (endogenous in 293T)) (UniProt Q9NXX6).
T1 sequence: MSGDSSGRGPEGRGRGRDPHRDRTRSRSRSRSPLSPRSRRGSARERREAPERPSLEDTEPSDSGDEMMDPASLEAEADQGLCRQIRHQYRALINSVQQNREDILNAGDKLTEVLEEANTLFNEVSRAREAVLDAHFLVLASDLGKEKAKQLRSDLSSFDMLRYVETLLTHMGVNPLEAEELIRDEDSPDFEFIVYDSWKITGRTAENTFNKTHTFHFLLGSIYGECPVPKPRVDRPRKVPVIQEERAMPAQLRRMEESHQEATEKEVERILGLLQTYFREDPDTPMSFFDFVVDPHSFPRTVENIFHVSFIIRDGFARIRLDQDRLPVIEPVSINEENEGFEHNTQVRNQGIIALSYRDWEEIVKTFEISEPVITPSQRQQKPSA
Description: co-IP; endogenous proteins; 293T cells lysed in RIPA lysis buffer; immunoprecipitated with anti-PJA1 antibody, anti-NSE4 antibody or rabbit IgG; blots for PJA1, NSE4, GAPDH.

The target of a further test is T2, Flag-SMC6 (human) (UniProt Q96SB8).
T2 sequence: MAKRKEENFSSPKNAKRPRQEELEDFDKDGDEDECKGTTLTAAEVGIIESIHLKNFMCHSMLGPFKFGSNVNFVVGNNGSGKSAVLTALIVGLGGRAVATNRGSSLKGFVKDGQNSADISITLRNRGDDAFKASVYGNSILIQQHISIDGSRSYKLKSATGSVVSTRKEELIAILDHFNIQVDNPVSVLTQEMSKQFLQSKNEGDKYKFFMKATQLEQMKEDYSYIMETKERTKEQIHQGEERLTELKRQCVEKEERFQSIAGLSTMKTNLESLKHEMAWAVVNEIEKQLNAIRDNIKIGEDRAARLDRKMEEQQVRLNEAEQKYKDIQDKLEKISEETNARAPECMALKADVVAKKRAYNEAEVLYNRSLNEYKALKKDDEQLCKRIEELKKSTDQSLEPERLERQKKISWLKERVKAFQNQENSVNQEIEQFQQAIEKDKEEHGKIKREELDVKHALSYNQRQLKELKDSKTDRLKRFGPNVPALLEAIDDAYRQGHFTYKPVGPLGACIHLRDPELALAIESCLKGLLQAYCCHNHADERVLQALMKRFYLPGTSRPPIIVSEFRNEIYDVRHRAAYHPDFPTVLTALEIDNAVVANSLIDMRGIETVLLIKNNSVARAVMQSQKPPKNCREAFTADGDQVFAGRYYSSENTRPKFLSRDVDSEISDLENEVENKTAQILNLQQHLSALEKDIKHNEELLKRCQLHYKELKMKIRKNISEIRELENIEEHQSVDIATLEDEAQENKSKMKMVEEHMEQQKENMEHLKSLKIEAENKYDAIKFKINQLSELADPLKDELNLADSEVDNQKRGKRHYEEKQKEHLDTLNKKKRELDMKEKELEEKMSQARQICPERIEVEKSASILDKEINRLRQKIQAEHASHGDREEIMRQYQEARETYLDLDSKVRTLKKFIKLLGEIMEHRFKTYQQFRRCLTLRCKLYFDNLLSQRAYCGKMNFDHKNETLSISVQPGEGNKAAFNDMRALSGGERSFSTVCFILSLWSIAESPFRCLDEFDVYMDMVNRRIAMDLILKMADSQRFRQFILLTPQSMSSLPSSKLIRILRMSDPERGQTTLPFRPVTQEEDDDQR
Kind of test: co-IP; 293T cells cotransfected with pCAGGS-HA-PJA1ΔR and pFlag constructs; RIPA lysis buffer; protein G-agarose, overnight at 4°C; washes with 150 mM NaCl wash buffer; blots with anti-HA or anti-Flag.

Another test concerns the target T3, Flag-NSE3 (human) (UniProt Q96MG7).
T3 sequence: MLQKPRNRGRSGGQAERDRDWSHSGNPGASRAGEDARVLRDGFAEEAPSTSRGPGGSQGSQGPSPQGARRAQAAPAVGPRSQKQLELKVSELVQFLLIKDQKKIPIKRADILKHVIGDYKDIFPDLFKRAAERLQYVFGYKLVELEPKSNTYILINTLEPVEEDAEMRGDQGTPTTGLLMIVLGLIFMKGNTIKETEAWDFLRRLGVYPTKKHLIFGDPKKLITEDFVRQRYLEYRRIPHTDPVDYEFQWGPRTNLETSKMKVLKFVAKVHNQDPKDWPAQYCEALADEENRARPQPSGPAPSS
The description is as above.

For the next test, the target named is T4, Flag-NSE1 (human) (UniProt Q8WV22).
T4 sequence: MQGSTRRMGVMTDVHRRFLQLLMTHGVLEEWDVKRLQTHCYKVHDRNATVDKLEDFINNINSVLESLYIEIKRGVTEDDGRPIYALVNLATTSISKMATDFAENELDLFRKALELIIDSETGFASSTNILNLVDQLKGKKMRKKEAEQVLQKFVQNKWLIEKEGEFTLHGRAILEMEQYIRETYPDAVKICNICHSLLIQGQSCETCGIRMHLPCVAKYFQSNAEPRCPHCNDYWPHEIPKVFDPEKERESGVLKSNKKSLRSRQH
The description is as above.

The target of another test is T5, Flag-NSE4 (human) (UniProt Q9NXX6).
T5 sequence: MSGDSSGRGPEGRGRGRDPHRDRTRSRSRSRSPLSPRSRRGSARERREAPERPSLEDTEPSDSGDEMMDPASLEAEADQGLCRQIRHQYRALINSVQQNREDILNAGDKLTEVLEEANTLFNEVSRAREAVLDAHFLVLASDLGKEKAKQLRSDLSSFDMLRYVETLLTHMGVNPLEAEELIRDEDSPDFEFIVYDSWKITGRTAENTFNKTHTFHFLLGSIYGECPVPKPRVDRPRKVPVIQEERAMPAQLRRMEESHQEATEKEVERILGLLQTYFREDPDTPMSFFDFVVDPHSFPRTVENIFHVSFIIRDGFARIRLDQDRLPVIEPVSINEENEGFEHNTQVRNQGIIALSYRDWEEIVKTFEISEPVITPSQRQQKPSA
Described as above.

For test [2], the target named is T6, HA-NSE4 (from pCAGGS-HA-NSE4) (human) (UniProt Q9NXX6).
T6 sequence: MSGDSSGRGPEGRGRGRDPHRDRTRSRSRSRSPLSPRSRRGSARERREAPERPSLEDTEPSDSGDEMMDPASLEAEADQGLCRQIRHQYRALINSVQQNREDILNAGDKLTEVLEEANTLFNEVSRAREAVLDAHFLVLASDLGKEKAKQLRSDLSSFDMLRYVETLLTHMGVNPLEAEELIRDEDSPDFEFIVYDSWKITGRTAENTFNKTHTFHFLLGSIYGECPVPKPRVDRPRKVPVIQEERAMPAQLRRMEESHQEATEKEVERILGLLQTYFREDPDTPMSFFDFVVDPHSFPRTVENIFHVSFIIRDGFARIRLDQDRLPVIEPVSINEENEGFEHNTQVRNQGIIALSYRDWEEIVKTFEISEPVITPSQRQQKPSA
Description: co-IP; competitive co-IP: 293T cells cotransfected with pCAGGS-HA-NSE4 and pFlag-SMC5, pFlag-NSE1 or pFlag-NSE3, with or without tag-free pcDNA3.1-PJA1ΔR (0.5 μg) or pcDNA3.1-PJA1BΔR (0, 0.5, 1.5 μg); RIPA lysis buffer; blots with anti-HA or anti-Flag.

For another test, the target named is T7, GST-NSE3 (human) (UniProt Q96MG7).
T7 sequence: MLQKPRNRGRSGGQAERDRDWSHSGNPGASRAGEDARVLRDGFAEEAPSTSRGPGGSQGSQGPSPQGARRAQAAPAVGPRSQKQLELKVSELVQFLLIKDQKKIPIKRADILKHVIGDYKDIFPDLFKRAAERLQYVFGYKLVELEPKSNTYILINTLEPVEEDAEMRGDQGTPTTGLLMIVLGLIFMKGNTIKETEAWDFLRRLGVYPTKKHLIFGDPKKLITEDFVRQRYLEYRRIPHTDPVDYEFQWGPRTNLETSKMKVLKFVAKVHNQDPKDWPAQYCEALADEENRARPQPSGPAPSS
Kind of test: pull-down; GST fusions immobilised on glutathione-Sepharose beads, incubated with MBP-PJA1BΔR lysates at 4°C for 1 h, washed 5 times with cold PBS; blots with anti-PJA1 or anti-GST; only the target purified.

The target of a further test is T8, GST-NSE4 (human) (UniProt Q9NXX6).
T8 sequence: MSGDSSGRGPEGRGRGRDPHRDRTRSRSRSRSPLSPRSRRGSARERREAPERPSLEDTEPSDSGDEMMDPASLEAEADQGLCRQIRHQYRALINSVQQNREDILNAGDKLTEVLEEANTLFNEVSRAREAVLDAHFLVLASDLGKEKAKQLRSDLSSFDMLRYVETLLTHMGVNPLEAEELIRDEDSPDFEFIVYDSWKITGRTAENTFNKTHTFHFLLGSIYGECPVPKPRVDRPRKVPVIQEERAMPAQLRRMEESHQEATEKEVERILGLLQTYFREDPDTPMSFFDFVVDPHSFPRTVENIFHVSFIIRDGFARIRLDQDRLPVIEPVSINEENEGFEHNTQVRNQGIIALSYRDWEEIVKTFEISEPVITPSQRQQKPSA
The description is as above.

The target in test [3] is endogenous PJA1 (human (endogenous in 293T)) (UniProt Q8NG27). Description: co-IP; endogenous proteins; 293T cells lysed in RIPA lysis buffer; immunoprecipitated with anti-PJA1 antibody, anti-NSE4 antibody or rabbit IgG; blots for PJA1, NSE4, GAPDH.

Results are given in words; binding and its absence hold for the method and conditions named. Binding seen in cells or lysates may run through a third protein. For some of these results: Binding calls can cover weak binding; strength is not graded here. For some of these results: Where a sequence is shown, tags or fusion partners need not be part of it.

Take endogenous PJA1 (from UniProt Q8NG27-3): the binding entry in test [1] is recorded as “binds”.

For the molecule “HA-PJA1ΔR (PJA1 lacking the RING domain, from pCAGGS-HA-PJA1ΔR) (domain or fragment)”, the binding entry with Flag-SMC6 (human) is given as “binds”; in the test with Flag-NSE3 (human), “binds”; with Flag-NSE1 (human), “no binding”; with Flag-NSE4 (human), “binds”.

Regarding “tag-free PJA1ΔR (from pcDNA3.1-PJA1ΔR) (domain or fragment)”, the binding result in [2] was “binds”.

For “tag-free PJA1BΔR (from pcDNA3.1-PJA1BΔR) (domain or fragment)”, the binding entry in test [2] is reported as “binds”.

“maltose-binding protein (MBP)-PJA1BΔR (domain or fragment)”: the binding result in the test with GST-NSE3 (human) was “binds”; with GST-NSE4 (human), “binds weakly”.

B1: endogenous NSE4 (protein, UniProt Q9NXX6 1-385)
chain: MSGDSSGRGPEGRGRGRDPHRDRTRSRSRSRSPLSPRSRRGSARERREAPERPSLEDTEPSDSGDEMMDPASLEAEADQGLCRQIRHQYRALINSVQQNREDILNAGDKLTEVLEEANTLFNEVSRAREAVLDAHFLVLASDLGKEKAKQLRSDLSSFDMLRYVETLLTHMGVNPLEAEELIRDEDSPDFEFIVYDSWKITGRTAENTFNKTHTFHFLLGSIYGECPVPKPRVDRPRKVPVIQEERAMPAQLRRMEESHQEATEKEVERILGLLQTYFREDPDTPMSFFDFVVDPHSFPRTVENIFHVSFIIRDGFARIRLDQDRLPVIEPVSINEENEGFEHNTQVRNQGIIALSYRDWEEIVKTFEISEPVITPSQRQQKPSA
Regarding B1, in [3], the binding entry was “binds”.
